# Measurements as given in EP4722245A1, “ANTIBODY TARGETING ITGA2, ANTIBODY DRUG CONJUGATE THEREOF, AND USE” (Foreseen Technology (Beijing) Co., Ltd., priority 2023, dated 2024).
# These are yes or no findings as the source states them, for the method shown. Some results given as binding are weak or reduced against the parent protein; the word gives no strength.
# T1: ITGA2-His (UniProt P17301 30-1132, limits assumed)
# T1 construct: Coated on the ELISA plate at 2 ug/mL; whole entry P17301 is named; also called ITGA2 protein; not shown: His tag
# T1 sequence (looked up): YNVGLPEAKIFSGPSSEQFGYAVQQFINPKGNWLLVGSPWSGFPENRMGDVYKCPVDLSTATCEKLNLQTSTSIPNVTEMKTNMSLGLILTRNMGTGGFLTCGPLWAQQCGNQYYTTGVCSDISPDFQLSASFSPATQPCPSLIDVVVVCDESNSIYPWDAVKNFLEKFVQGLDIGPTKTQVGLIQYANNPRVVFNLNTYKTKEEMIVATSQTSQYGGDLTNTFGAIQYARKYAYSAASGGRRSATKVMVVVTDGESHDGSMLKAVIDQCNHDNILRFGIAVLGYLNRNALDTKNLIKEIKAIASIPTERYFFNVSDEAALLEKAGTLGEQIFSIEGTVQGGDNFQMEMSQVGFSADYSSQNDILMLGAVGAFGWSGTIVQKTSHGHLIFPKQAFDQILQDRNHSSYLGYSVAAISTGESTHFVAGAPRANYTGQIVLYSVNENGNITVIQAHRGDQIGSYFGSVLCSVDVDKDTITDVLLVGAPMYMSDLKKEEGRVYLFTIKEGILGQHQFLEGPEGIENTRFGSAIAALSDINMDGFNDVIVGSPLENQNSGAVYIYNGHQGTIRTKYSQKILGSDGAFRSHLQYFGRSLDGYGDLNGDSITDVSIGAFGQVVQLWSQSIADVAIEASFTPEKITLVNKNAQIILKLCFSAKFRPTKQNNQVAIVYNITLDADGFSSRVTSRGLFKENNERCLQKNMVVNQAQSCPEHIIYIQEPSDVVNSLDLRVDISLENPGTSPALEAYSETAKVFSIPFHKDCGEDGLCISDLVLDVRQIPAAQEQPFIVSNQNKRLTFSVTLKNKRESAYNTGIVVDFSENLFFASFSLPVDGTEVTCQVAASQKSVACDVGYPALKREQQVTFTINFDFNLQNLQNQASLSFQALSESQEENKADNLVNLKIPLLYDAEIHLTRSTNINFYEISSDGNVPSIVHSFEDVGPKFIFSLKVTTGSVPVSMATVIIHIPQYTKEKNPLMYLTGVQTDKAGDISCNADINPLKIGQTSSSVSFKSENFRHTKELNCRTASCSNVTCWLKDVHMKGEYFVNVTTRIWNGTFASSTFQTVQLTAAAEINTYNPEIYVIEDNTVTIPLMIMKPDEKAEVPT
# Molecular target: T1, ITGA2-His
# Experiment: ELISA on coated ITGA2-His
row,Binder,binding
1,"Chimeric mouse antibody FS002-A153 (antibody, human IgG1, kappa, V domains shown, Chimeric) VH: QVQLQQSGAELVRPGASVTLSCKASGYTFTDYEMHWVKQTPVHGLEWIGTIDPETGGTTYNQKFNDKATLTADKSSSTAYMDLRSLTSEDSAVYYCSRSGYYVSSYESYAMDYWGQGTSVTVSS VL: DIVMTQSPSSLTVTAGEKVTMSCKSSQSLLNSGNQKNYLTWYQQKPGQPPKLLIYGASTRESGVPDRFTGSGSGTDFTLTISSVQAEDLAVYYCQNDYSYPFTFGSGTKLEIKR",binds
2,"Chimeric mouse antibody FS002-A208 (antibody, human IgG1, kappa, V domains shown, Chimeric) VH: QVQLQQSGAELVRPGASVTLSCKASGYTFTDYEIHWVKQTPVHGLEWIGAIDPETGGTNYNQKFNDKATLTADKSSSTAYMDLRSLTSEDSAVYYCSRSGYYVSNYESYAMDYWGQGTSVTVSS VL: DIVMTQSQKFMSTSVGDRVSVTCKASQNVGTNVAWYQQKPGQSPKTLIYSASYRFSGVPDRFTGSGSGTDFTLTINNVQSEDLADYFCQQYNIYPLSFGAGTKLELKR",binds
3,"Humanized antibody FS002-A103-H4L3 (antibody, human IgG1, kappa, V domains shown, Humanized IgG1 kappa) VH: QVQLVQSGAEVKKPGASVKVSCKASGYTFTDYEMHWVRQAPGQGLEWMGVIDPETGGTTYNQKFQGRVTLTADTSISTAYMELSRLRSDDTAVYYCSRSGYYVSSYESYAMDYWGQGTTVTVSS VL: EIVMTQSPPTMSMSPGERVTLSCKASENVGTYVSWYQQKPGQAPRLLIYGASTRESGVPARFSGSGSGTDFTLTISSLQPEDFAVYYCQNDYSYPFTFGGGTKLEIKR",binds
4,"Humanized antibody FS002-A103-H4L2 (antibody, human IgG1, kappa, V domains shown, Humanized IgG1 kappa) VH: QVQLVQSGAEVKKPGASVKVSCKASGYTFTDYEMHWVRQAPGQGLEWMGVIDPETGGTTYNQKFQGRVTLTADTSISTAYMELSRLRSDDTAVYYCSRSGYYVSSYESYAMDYWGQGTTVTVSS VL: EIVMTQSPKTMSMSPGERVTLSCKASENVGTYVSWYQQKPGQAPRLLIYGASTRESGVPDRFSGSGSGTDFTLTISSLQPEDFAVYYCQNDYSYPFTFGGGTKLEIKR",binds
5,"Humanized antibody FS002-A103-H4L4 (antibody, human IgG1, kappa, V domains shown, Humanized IgG1 kappa) VH: QVQLVQSGAEVKKPGASVKVSCKASGYTFTDYEMHWVRQAPGQGLEWMGVIDPETGGTTYNQKFQGRVTLTADTSISTAYMELSRLRSDDTAVYYCSRSGYYVSSYESYAMDYWGQGTTVTVSS VL: EIVMTQSPPTLSLSPGERVTLSCRASENVGTYVSWYQQKPGQAPRLLIYGASTRESGIPARFSGSGSGTDFTLTISSLQPEDFAVYYCQNDYSYPFTFGGGTKLEIKR",binds
6,"Humanized antibody FS002-A153-H5L2 (antibody, human IgG1, kappa, V domains shown, Humanized IgG1 kappa) VH: QVQLVQSGAEVKKPGASVKVSCKASGYTFTDYEMHWVRQAPGQGLEWMGTIDPETGGTTYAQKFQGRVTMTADTSISTAYMELSRLRSDDTAVYYCARSGYYVSSYESYAMDYWGQGTTVTVSS VL: DIVMTQSPDSLAVSLGERVTMNCKSSQSLLNSGNQKNYLTWYQQKPGQPPKLLIYGASTRESGVPDRFSGSGSGTDFTLTISSLQAEDVAVYYCQNDYSYPFTFGGGTKLEIKR",binds
7,"Humanized antibody FS002-A153-H3L3 (antibody, human IgG1, kappa, V domains shown, Humanized IgG1 kappa) VH: QVQLVQSGAEVKKPGASVKLSCKASGYTFTDYEMHWVRQAPGQGLEWIGTIDPETGGTTYNQKFQGRVTLTADTSISTAYMELSRLRSDDTAVYYCSRSGYYVSSYESYAMDYWGQGTTVTVSS VL: DIVMTQSPDSLAVSLGERATINCKSSQSLLNSGNQKNYLTWYQQKPGQPPKLLIYGASTRESGVPDRFSGSGSGTDFTLTISSLQAEDVAVYYCQNDYSYPFTFGGGTKLEIKR",binds
8,"Humanized antibody FS002-A153-H4L2 (antibody, human IgG1, kappa, V domains shown, Humanized IgG1 kappa) VH: QVQLVQSGAEVKKPGASVKVSCKASGYTFTDYEMHWVRQAPGQGLEWMGTIDPETGGTTYAQKFQGRVTLTADTSISTAYMELSRLRSDDTAVYYCSRSGYYVSSYESYAMDYWGQGTTVTVSS VL: DIVMTQSPDSLAVSLGERVTMNCKSSQSLLNSGNQKNYLTWYQQKPGQPPKLLIYGASTRESGVPDRFSGSGSGTDFTLTISSLQAEDVAVYYCQNDYSYPFTFGGGTKLEIKR",binds
9,"Humanized antibody FS002-A153-H5L1 (antibody, human IgG1, kappa, V domains shown, Humanized IgG1 kappa) VH: QVQLVQSGAEVKKPGASVKVSCKASGYTFTDYEMHWVRQAPGQGLEWMGTIDPETGGTTYAQKFQGRVTMTADTSISTAYMELSRLRSDDTAVYYCARSGYYVSSYESYAMDYWGQGTTVTVSS VL: DIVMTQSPDSLAVSLGERVTMSCKSSQSLLNSGNQKNYLTWYQQKPGQPPKLLIYGASTRESGVPDRFTGSGSGTDFTLTISSLQAEDVAVYYCQNDYSYPFTFGGGTKLEIKR",binds
10,"Humanized antibody FS002-A153-H5L4 (antibody, human IgG1, kappa, V domains shown, Humanized IgG1 kappa) VH: QVQLVQSGAEVKKPGASVKVSCKASGYTFTDYEMHWVRQAPGQGLEWMGTIDPETGGTTYAQKFQGRVTMTADTSISTAYMELSRLRSDDTAVYYCARSGYYVSSYESYAMDYWGQGTTVTVSS VL: DIVMTQSPPTLSVSPGERVTMSCKSSQSLLNSGNQKNYLTWYQQKPGQAPRLLIYGASTRESGVPDRFSGSGSGTDFTLTISSLQPEDFAVYYCQNDYSYPFTFGGGTKLEIKR",binds
11,"Humanized antibody FS002-A153-H5L5 (antibody, human IgG1, kappa, V domains shown, Humanized IgG1 kappa) VH: QVQLVQSGAEVKKPGASVKVSCKASGYTFTDYEMHWVRQAPGQGLEWMGTIDPETGGTTYAQKFQGRVTMTADTSISTAYMELSRLRSDDTAVYYCARSGYYVSSYESYAMDYWGQGTTVTVSS VL: EIVMTQSPPTLSLSPGERVTMSCRSSQSLLNSGNQKNYLTWYQQKPGQAPRLLIYGASTRESGVPARFSGSGSGTDFTLTISSLQPEDFAVYYCQNDYSYPFTFGGGTKLEIKR",binds
12,"Humanized antibody FS002-A208-H4L4 (antibody, human IgG1, kappa, V domains shown, Humanized IgG1 kappa) VH: QVQLVQSGAEVKKPGASVKVSCKASGYTFTDYEIHWVRQAPGQGLEWIGAIDPETGGTNYNQKFQGRVTLTADTSISTAYMELSRLRSDDTAVYYCSRSGYYVSNYESYAMDYWGQGTTVTVSS VL: DIQMTQSPSSLSASVGDRVTITCRASQNVGTNVAWYQQKPEKAPKSLIYSASYRFSGVPSRFSGSGSGTDFTLTISSLQPEDFATYYCQQYNIYPLSFGGGTKLELKR",binds
13,"Humanized antibody FS002-A208-H3L4 (antibody, human IgG1, kappa, V domains shown, Humanized IgG1 kappa) VH: QVQLVQSGAEVKKPGASVKVSCKASGYTFTDYEIHWVRQAPGQGLEWIGAIDPETGGTNYNQKFNDRVTLTADKSISTAYMELSRLRSDDTAVYYCSRSGYYVSNYESYAMDYWGQGTTVTVSS VL: DIQMTQSPSSLSASVGDRVTITCRASQNVGTNVAWYQQKPEKAPKSLIYSASYRFSGVPSRFSGSGSGTDFTLTISSLQPEDFATYYCQQYNIYPLSFGGGTKLELKR",binds
14,"Humanized antibody FS002-A208-H5L4 (antibody, human IgG1, kappa, V domains shown, Humanized IgG1 kappa) VH: QVQLVQSGAEVKKPGASVKVSCKASGYTFTDYEIHWVRQAPGQGLEWMGAIDPETGGTNYAQKFQGRVTMTADTSISTAYMELSRLRSDDTAVYYCSRSGYYVSNYESYAMDYWGQGTTVTVSS VL: DIQMTQSPSSLSASVGDRVTITCRASQNVGTNVAWYQQKPEKAPKSLIYSASYRFSGVPSRFSGSGSGTDFTLTISSLQPEDFATYYCQQYNIYPLSFGGGTKLELKR",binds
15,"Humanized antibody FS002-A226-H4L3 (antibody, human IgG1, kappa, V domains shown, Humanized IgG1 kappa) VH: QVQLVQSGAEVKKPGASVKVSCKASGYTFTDYEIHWVRQAPGQGLEWIGAIDPETGGTNYNQKFQGRVTLTADTSISTAYMELSRLRSDDTAVYYCSRSGYYVSNYESYAMDYWGQGTTVTVSS VL: DIQITQSPSSMSASVGDRVTITCKASQDIKSYLSWYQQKPGKAPKLLIYDTSNLASGVPSRFSGSGSGTDYTLTISSLQPEDFATYYCQQWSSYPFTFGGGTKLEIKR",binds
16,"Humanized antibody FS002-A226-H3L4 (antibody, human IgG1, kappa, V domains shown, Humanized IgG1 kappa) VH: QLQLVQSGAEVKKPGASVKVSCKASGYTFTDYEIHWVRQAPGQGLEWIGAIDPETGGTNYNQKFNDRVTLTADTSISTAYMELSRLRSDDTAVYYCSRSGYYVSNYESYAMDYWGQGTTVTVSS VL: DIQLTQSPSSLSASVGDRVTITCRASQDIKSYLSWYQQKPGKAPKLLIYDTSNLASGVPSRFSGSGSGTDFTLTISSLQPEDFATYYCQQWSSYPFTFGGGTKLEIKR",binds
17,"Humanized antibody FS002-A226-H5L3 (antibody, human IgG1, kappa, V domains shown, Humanized IgG1 kappa) VH: QVQLVQSGAEVKKPGASVKVSCKASGYTFTDYEIHWVRQAPGQGLEWMGAIDPETGGTNYAQKFQGRVTMTADTSISTAYMELSRLRSDDTAVYYCSRSGYYVSNYESYAMDYWGQGTTVTVSS VL: DIQITQSPSSMSASVGDRVTITCKASQDIKSYLSWYQQKPGKAPKLLIYDTSNLASGVPSRFSGSGSGTDYTLTISSLQPEDFATYYCQQWSSYPFTFGGGTKLEIKR",binds
